We go through 17 substances from article PMC5890784 (Chemical Science, 2018).

Series [1] in a line: solid-phase peptide synthesis. The conditions noted are these: for final LC-MS purity: LC-MS chromatograms, XTerra MS C18 column.
Series [2] in a line: general procedure: Fmoc solid-phase peptide synthesis; 2-ClTrtCl; HATU/iPr2EtN (HATU or HCTU/HOAt/TMP for glycosylated Ser and 21Cys). The conditions noted are these: whole synthesis, scale 0.1 mmol.
The nature of series [3]: general procedure: Fmoc solid-phase peptide synthesis; 2-ClTrtCl-polystyrene; HATU/iPr2EtN (HATU or HCTU/HOAt/TMP for glycosylated Ser and 21Cys). The conditions noted are these: whole synthesis, scale of the general procedure 0.1 mmol (0.2 mmol for peptide 6).
Series [4] can be described thus: general procedure: Fmoc solid-phase peptide synthesis; 2-ClTrtCl resin; HATU/iPr2EtN (HATU or HCTU/HOAt/TMP for glycosylated Ser and 21Cys). The conditions noted are these: whole synthesis, scale 0.1 mmol.
Series [5] can be described thus: general procedure: Fmoc solid-phase peptide synthesis; HMPB-aminomethyl polystyrene; HATU/iPr2EtN (HATU or HCTU/HOAt/TMP for glycosylated Ser and 21Cys). The conditions noted are these: whole synthesis.
Setting [6] is: whole synthesis, scale of the general procedure 0.1 mmol (0.2 mmol for peptide 6).

Turning to “H2N-12Cys-18Ser(β-GlcNAc(OAc)3)-43Ser(β-GlcNAc(OAc)3)-COOH”, in series [1] (setting [6]), the “final LC-MS purity” value was determined as 98% purity and the isolated yield is 17% yield. For the same substance, in series [2], the isolated mass came out at 70 mg.

In the case of “H2N-12Cys-18Ser(β-GlcNAc(OAc)3)-L-27His-43Cys(β-GlcNAc(OAc)3)-COOH”, in series [1] (coupling step), the step yield worked out at 22% yield and the “final LC-MS purity” value turned out to be 98% purity.

On to “[^12Cys–^18Ser(β-GlcNAc(OAc)3)–^43Cys(β-GlcNAc(OAc)3)]”, for which the “crude LC-MS purity” value in series [3] (LC-MS chromatograms, XTerra MS C18 column) was more than 73%. Further, the crude yield in series [3] was 30%.

In turn, ^43Cys(GlcNAc) to Ser(GlcNAc) came in with a step yield in series [1] (coupling step) of 40%. Further, in series [1] (oxidative folding step), the oxidative folding yield is 29% yield and the “final LC-MS purity” value is given as 99% purity.

As for ^18Ser(GlcNAc) to Cys(GlcNAc), in series [1] (coupling step), the step yield worked out at 44%. Also, in series [1] (oxidative folding step), the oxidative folding yield is reported as 31% yield and the “final LC-MS purity” value was 99% purity.

Regarding “H2N-12Cys-18Ser(β-GlcNAc(OAc)3)-D-27His-43Cys(β-GlcNAc(OAc)3)-COOH”, in series [1] (coupling step), the step yield turned out to be 20% yield and the “final LC-MS purity” value was 98% purity.

For the substance glycocin F, in series [1] (oxidative folding step), the oxidative folding yield turned out to be 32% and the “final LC-MS purity” value is 99% purity.

“H2N-1Lys-18Cys(β-GlcNAc(OAc)3)-43Cys(β-GlcNAc(OAc)3)-COOH”: in series [1] (coupling step), the step yield is recorded as 44% yield and the “final LC-MS purity” value came out at 99% purity.

Turning to “H2N-12Cys-18Cys(β-GlcNAc(OAc)3)-43Cys(β-GlcNAc(OAc)3)-COOH”, in series [1] (setting [6]), the “final LC-MS purity” value turned out to be 98% purity and the isolated yield is 14% yield. Moreover, in series [2], the isolated mass was 57.7 mg.

Turning to “H2N-1Lys-18Ser(β-GlcNAc(OAc)3)-43Ser(β-GlcNAc(OAc)3)-COOH”, in series [1] (coupling step), the step yield stood at 40% yield and the “final LC-MS purity” value is listed as 97% purity.

As for “H2N-12Thz-18Ser(β-GlcNAc(OAc)3)-27His-COSBn”, in series [1] (setting [6]), the difficulty met entry is listed as “changing the linker to 2-chlorotrityl linker reduced this to ca. 20%”. Further, in series [4], the crude mass was found to be 89.mg and the crude yield was found to be 41%. In series [5], this substance came in with an isolated mass of 50.1 mg. Moreover, the “final LC-MS purity” value in series [5] (LC-MS chromatograms, XTerra MS C18 column, scale of the general procedure 0.1 mmol (0.2 mmol for peptide 6)) is given as 98%. The substance also yielded an isolated yield in series [5] (based on 0.1 mmol, scale 0.1 mmol) of 23%.

Turning to H2N-28Cys-43Cys(β-GlcNAc(OAc)3)-COOH, in series [1] (setting [6]), the “final LC-MS purity” value is 98% purity and the isolated yield came out at 29% yield. The isolated mass in series [2] came out at 60 mg.

“H2N-1Lys-4Trp(CHO)-6Trp(CHO)-11Met-COSCH2CH2CO-(Lys)5-COOH” gave an isolated mass in series [1] (whole synthesis) of 142 mg. Besides, in series [1] (setting [6]), the “final LC-MS purity” value was 99% and the isolated yield is on record as 33%.

Regarding “H2N-1Lys-18Ser(β-GlcNAc)-43Ser(β-GlcNAc)-COOH”, in series [1] (late stage modification step), the step yield was found to be 31% yield and the “final LC-MS purity” value amounted to 98% purity.

For “H2N-1Lys-18Ser(β-GlcNAc)-D-27His-43Cys(β-GlcNAc)-COOH”, the step yield in series [1] (late stage modification step) is reported as 52% crude yield.

In series [1] (late stage modification step), “H2N-1Lys-18Ser(β-GlcNAc)-L-27His-43Cys(β-GlcNAc)-COOH” registered a step yield of 57% crude yield.

“H2N-1Lys-18Cys(β-GlcNAc)-43Cys(β-GlcNAc)-COOH”: in series [1] (late stage modification step), the step yield is on record as 52% yield and the “final LC-MS purity” value is 98% purity.
